# Laboratory results: the supplement of paper PMC8728848
# This is one part of the list.
# B1: SUN4P (Saccharomyces cerevisiae), P53616 (protein)
# chain: MGSSHHHHHHSSGLVPRGSHNGSIYGDLADFSGPYEKFEDGTIPCGQFPSGQGVIPISWLDEGGWSGVENTDTSTGGSCKEGSYCSYACQPGMSKTQWPSDQPSDGRSIGGLLCKDGYLYRSNTDTDYLCEWGVDAAYVVSELSNDVAICLTDYPGTENMVIPTYVQAGDSLPLTVVDQDTYYTWQGLKTSAQYYVNNAGISVEDACVWGSSSSGVGNWAPLNFGAGSSDGVAYLSLIPNPNNGNALNFNVKIVAADDSSTVNGECIYENGSFSGGSDGCTVSVTAGKAKFVLYN
# Key:
# Assay in all cases: glycan array binding signal (z-score within array); higher = stronger binding
# Conditions in all cases: glycan notation: IUPAC condensed, linker removed; mutation: R276L
# Gal3S4S(b1-4)GlcNAc = target: Gal3S4S(b1-4)GlcNAc
# How it was run: (§1)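 Columns mapping to the same glycan were averaged after glycan names were converted to IUPAC-condensed notation. The data come from 3228 arrays in the Consortium for Functional Glycomics database, limited to those with an available protein sequence. Binding is reported as a within-array Z-score averaged across arrays of one protein sequence and across linkers.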
# Gal3S6S(b1-4)GlcNAc = target: Gal3S6S(b1-4)GlcNAc
# How it was run: as §1
# Gal3S6S(b1-4)GlcNAc6S = target: Gal3S6S(b1-4)GlcNAc6S
# How it was run: as §1
# Gal4S(b1-4)GlcNAc = target: Gal4S(b1-4)GlcNAc
# How it was run: as §1
# Gal4S6S(b1-4)GlcNAc = target: Gal4S6S(b1-4)GlcNAc
# How it was run: as §1
# Gal6P(b1-4)GlcNAc = target: Gal6P(b1-4)GlcNAc
# How it was run: as §1
# Gal6S(b1-3)GlcNAc = target: Gal6S(b1-3)GlcNAc
# How it was run: as §1
# Gal6S(b1-3)GlcNAc6S = target: Gal6S(b1-3)GlcNAc6S
# How it was run: as §1
# Gal6S(b1-4)Glc = target: Gal6S(b1-4)Glc
# How it was run: as §1
# Gal6S(b1-4)Glc6S = target: Gal6S(b1-4)Glc6S
# How it was run: as §1
# Gal6S(b1-4)GlcNAc = target: Gal6S(b1-4)GlcNAc
# How it was run: as §1
# Gal6S(b1-4)GlcNAc6S = target: Gal6S(b1-4)GlcNAc6S
# How it was run: as §1
# GalNAc(a1-3)Gal = target: GalNAc(a1-3)Gal
# How it was run: as §1
# GalNAc(a1-3)GalNAc = target: GalNAc(a1-3)GalNAc
# How it was run: as §1
# [1] = target: GalNAc(a1-3)GalNAc(b1-3)Gal(a1-4)Gal(b1-4)Glc
# How it was run: as §1
# [2] = target: GalNAc(a1-3)GalNAc(b1-3)Gal(a1-4)Gal(b1-4)GlcNAc
# How it was run: as §1
# GalNAc(b1-3)Gal = target: GalNAc(b1-3)Gal
# How it was run: as §1
# [3] = target: GalNAc(b1-3)Gal(a1-4)Gal(b1-4)GlcNAc
# How it was run: as §1
# [4] = target: GalNAc(b1-3)Gal(a1-4)Gal(b1-4)GlcNAc(b1-3)Gal(b1-4)Glc
# How it was run: as §1
# [5] = target: GalNAc(b1-3)Gal(a1-6)Gal(b1-4)Glc
# How it was run: as §1
# GalNAc(b1-3)GalNAc = target: GalNAc(b1-3)GalNAc
# How it was run: as §1
# GalNAc(b1-3)GlcNAc = target: GalNAc(b1-3)GlcNAc
# How it was run: as §1
# GalNAc(b1-4)Gal(b1-4)Glc = target: GalNAc(b1-4)Gal(b1-4)Glc
# How it was run: as §1
# GalNAc(b1-4)GlcNAc = target: GalNAc(b1-4)GlcNAc
# How it was run: as §1
# [6] = target: GalNAc(b1-4)GlcNAc(b1-2)Man
# How it was run: as §1
# [7] = target: GalNAc(b1-4)GlcNAc(b1-2)Man(a1-3)[GalNAc(b1-4)GlcNAc(b1-2)Man(a1-6)]Man(b1-4)GlcNAc(b1-4)GlcNAc
# How it was run: as §1
# [8] = target: GalNAc(b1-4)GlcNAc(b1-3)GalNAc(b1-4)GlcNAc
# How it was run: as §1
# GalNAc(b1-4)GlcNAc6S = target: GalNAc(b1-4)GlcNAc6S
# How it was run: as §1
# GalNAc(b1-6)GalNAc = target: GalNAc(b1-6)GalNAc
# How it was run: as §1
# GalNAc3S(b1-4)GlcNAc = target: GalNAc3S(b1-4)GlcNAc
# How it was run: as §1
# GalNAc3S(b1-4)GlcNAc3S = target: GalNAc3S(b1-4)GlcNAc3S
# How it was run: as §1
# [9] = target: GalNAc3S(b1-4)[Fuc(a1-3)]GlcNAc
# How it was run: as §1
# GalNAc4S6S(b1-4)GlcNAc = target: GalNAc4S6S(b1-4)GlcNAc
# How it was run: as §1
# GalNAc6S(b1-4)GlcNAc = target: GalNAc6S(b1-4)GlcNAc
# How it was run: as §1
# Glc(a1-4)Glc = target: Glc(a1-4)Glc
# How it was run: as §1
# [10] = target: Glc(a1-4)Glc(a1-4)Glc(a1-4)Glc
# How it was run: as §1
# Glc(a1-6)Glc(a1-6)Glc = target: Glc(a1-6)Glc(a1-6)Glc
# How it was run: as §1
# [11] = target: Glc(a1-6)Glc(a1-6)Glc(a1-6)Glc
# How it was run: as §1
binder,measurement,setting,value
B1,glycan array binding signal (z-score),Gal3S4S(b1-4)GlcNAc,-0.244
same,glycan array binding signal (z-score),Gal3S6S(b1-4)GlcNAc,1.73
same,glycan array binding signal (z-score),Gal3S6S(b1-4)GlcNAc6S,1.36
same,glycan array binding signal (z-score),Gal4S(b1-4)GlcNAc,-0.198
same,glycan array binding signal (z-score),Gal4S6S(b1-4)GlcNAc,0.289
same,glycan array binding signal (z-score),Gal6P(b1-4)GlcNAc,-1.09
same,glycan array binding signal (z-score),Gal6S(b1-3)GlcNAc,-0.392
same,glycan array binding signal (z-score),Gal6S(b1-3)GlcNAc6S,1.12
same,glycan array binding signal (z-score),Gal6S(b1-4)Glc,-0.521
same,glycan array binding signal (z-score),Gal6S(b1-4)Glc6S,-1.75
same,glycan array binding signal (z-score),Gal6S(b1-4)GlcNAc,0.353
same,glycan array binding signal (z-score),Gal6S(b1-4)GlcNAc6S,1.73
same,glycan array binding signal (z-score),GalNAc(a1-3)Gal,0.676
same,glycan array binding signal (z-score),GalNAc(a1-3)GalNAc,-0.329
same,glycan array binding signal (z-score),[1],0.44
same,glycan array binding signal (z-score),[2],-0.339
same,glycan array binding signal (z-score),GalNAc(b1-3)Gal,0.255
same,glycan array binding signal (z-score),[3],0.975
same,glycan array binding signal (z-score),[4],0.11
same,glycan array binding signal (z-score),[5],-0.492
same,glycan array binding signal (z-score),GalNAc(b1-3)GalNAc,-1.61
same,glycan array binding signal (z-score),GalNAc(b1-3)GlcNAc,0.143
same,glycan array binding signal (z-score),GalNAc(b1-4)Gal(b1-4)Glc,-0.35
same,glycan array binding signal (z-score),GalNAc(b1-4)GlcNAc,-0.514
same,glycan array binding signal (z-score),[6],-0.288
same,glycan array binding signal (z-score),[7],0.301
same,glycan array binding signal (z-score),[8],-0.87
same,glycan array binding signal (z-score),GalNAc(b1-4)GlcNAc6S,0.524
same,glycan array binding signal (z-score),GalNAc(b1-6)GalNAc,-0.032
same,glycan array binding signal (z-score),GalNAc3S(b1-4)GlcNAc,0.123
same,glycan array binding signal (z-score),GalNAc3S(b1-4)GlcNAc3S,0.933
same,glycan array binding signal (z-score),[9],-0.241
same,glycan array binding signal (z-score),GalNAc4S6S(b1-4)GlcNAc,0.715
same,glycan array binding signal (z-score),GalNAc6S(b1-4)GlcNAc,0.217
same,glycan array binding signal (z-score),Glc(a1-4)Glc,-0.169
same,glycan array binding signal (z-score),[10],-0.406
same,glycan array binding signal (z-score),Glc(a1-6)Glc(a1-6)Glc,-1.11
same,glycan array binding signal (z-score),[11],0.06

# Reformatted: entries from further up
binder | measurement | setting | value
B1 | glycan array binding signal (z-score) | Gal6S(b1-4)GlcNAc6S | 1.73
same | glycan array binding signal (z-score) | GalNAc(a1-3)Gal | 0.676
